{"source": "patent US8158656B2", "about": "“2-indolinone derivatives as multi-target protein kinase inhibitors and histone deacetylase inhibitors” (Shenzhen Chipscreen Biosciences Ltd., priority 2008, dated 2012)", "system": "total HDAC enzyme", "experiment": "Total HDAC enzyme activity, HDAC Fluorimetric Assay (HeLa extract)", "assay_type": "biochemical, human", "description": "Measurement of in vitro inhibition of total HDAC enzyme activity:\nThe in vitro inhibition of total HDAC enzyme was determined by HDAC Fluorimetric Assay/Drug Discovery Kit (BIOMOL) according to manufacture's instruction. • 1. Add Assay buffer, diluted trichostatin A or test inhibitor to appropriate wells of the microtiter plate. Following table lists examples of various assay types and the additions required for each test.\n• 2. Add diluted HeLa extract or other HDAC sample to all wells except those that are to be “No Enzyme Controls” (Blank). • 3. Allow diluted Fluor de Lys™ Substrate and the samples in the microtiter plate to equilibrate to assay temperature (25° C.). • 4. Initiate HDAC reactions by adding diluted substrate (25 μl) to each well and mixing thoroughly. • 5. Allow HDAC reactions to proceed for desired length of time and then stop them by addition of Fluor de Lys™ Developer (50 μl). Incubate plate at room temperature (25° C.) for 10-15 min. • 6. Read samples in a microtiter-plate reading fluorimeter capable of excitation at a wavelength in the range 350-380 nm and detection of emitted light in the range 440-460 nm. Measurement of in vivo inhibition of HDAC subtype activity: […]"}
{"smiles": "O=C(CCCCCCC(=O)Nc1ccccc1)NO", "note": "[SAHA, suberoylanilide hydroxamic acid, reference compound]", "values": [{"measurement": "% inhibition of total HDAC enzyme activity at 30 μM", "value": 95.7, "unit": "%"}]}
